Test results: patent US20200392158A1, “INHIBITORS OF LEUCINE RICH REPEAT KINASE 2” (GLAXOSMITHKLINE INTELLECTUAL PROPERTY DEVELOPMENT LIMITED, priority 2017, published 2020)
Some results were stated once for a whole list of compounds, not compound by compound.

Chains of the proteins cited; added tags and fusions are not shown. Lines headed by an entry give the natural chain unless they say otherwise; changes in a name come on top.
UniProt Q5S007: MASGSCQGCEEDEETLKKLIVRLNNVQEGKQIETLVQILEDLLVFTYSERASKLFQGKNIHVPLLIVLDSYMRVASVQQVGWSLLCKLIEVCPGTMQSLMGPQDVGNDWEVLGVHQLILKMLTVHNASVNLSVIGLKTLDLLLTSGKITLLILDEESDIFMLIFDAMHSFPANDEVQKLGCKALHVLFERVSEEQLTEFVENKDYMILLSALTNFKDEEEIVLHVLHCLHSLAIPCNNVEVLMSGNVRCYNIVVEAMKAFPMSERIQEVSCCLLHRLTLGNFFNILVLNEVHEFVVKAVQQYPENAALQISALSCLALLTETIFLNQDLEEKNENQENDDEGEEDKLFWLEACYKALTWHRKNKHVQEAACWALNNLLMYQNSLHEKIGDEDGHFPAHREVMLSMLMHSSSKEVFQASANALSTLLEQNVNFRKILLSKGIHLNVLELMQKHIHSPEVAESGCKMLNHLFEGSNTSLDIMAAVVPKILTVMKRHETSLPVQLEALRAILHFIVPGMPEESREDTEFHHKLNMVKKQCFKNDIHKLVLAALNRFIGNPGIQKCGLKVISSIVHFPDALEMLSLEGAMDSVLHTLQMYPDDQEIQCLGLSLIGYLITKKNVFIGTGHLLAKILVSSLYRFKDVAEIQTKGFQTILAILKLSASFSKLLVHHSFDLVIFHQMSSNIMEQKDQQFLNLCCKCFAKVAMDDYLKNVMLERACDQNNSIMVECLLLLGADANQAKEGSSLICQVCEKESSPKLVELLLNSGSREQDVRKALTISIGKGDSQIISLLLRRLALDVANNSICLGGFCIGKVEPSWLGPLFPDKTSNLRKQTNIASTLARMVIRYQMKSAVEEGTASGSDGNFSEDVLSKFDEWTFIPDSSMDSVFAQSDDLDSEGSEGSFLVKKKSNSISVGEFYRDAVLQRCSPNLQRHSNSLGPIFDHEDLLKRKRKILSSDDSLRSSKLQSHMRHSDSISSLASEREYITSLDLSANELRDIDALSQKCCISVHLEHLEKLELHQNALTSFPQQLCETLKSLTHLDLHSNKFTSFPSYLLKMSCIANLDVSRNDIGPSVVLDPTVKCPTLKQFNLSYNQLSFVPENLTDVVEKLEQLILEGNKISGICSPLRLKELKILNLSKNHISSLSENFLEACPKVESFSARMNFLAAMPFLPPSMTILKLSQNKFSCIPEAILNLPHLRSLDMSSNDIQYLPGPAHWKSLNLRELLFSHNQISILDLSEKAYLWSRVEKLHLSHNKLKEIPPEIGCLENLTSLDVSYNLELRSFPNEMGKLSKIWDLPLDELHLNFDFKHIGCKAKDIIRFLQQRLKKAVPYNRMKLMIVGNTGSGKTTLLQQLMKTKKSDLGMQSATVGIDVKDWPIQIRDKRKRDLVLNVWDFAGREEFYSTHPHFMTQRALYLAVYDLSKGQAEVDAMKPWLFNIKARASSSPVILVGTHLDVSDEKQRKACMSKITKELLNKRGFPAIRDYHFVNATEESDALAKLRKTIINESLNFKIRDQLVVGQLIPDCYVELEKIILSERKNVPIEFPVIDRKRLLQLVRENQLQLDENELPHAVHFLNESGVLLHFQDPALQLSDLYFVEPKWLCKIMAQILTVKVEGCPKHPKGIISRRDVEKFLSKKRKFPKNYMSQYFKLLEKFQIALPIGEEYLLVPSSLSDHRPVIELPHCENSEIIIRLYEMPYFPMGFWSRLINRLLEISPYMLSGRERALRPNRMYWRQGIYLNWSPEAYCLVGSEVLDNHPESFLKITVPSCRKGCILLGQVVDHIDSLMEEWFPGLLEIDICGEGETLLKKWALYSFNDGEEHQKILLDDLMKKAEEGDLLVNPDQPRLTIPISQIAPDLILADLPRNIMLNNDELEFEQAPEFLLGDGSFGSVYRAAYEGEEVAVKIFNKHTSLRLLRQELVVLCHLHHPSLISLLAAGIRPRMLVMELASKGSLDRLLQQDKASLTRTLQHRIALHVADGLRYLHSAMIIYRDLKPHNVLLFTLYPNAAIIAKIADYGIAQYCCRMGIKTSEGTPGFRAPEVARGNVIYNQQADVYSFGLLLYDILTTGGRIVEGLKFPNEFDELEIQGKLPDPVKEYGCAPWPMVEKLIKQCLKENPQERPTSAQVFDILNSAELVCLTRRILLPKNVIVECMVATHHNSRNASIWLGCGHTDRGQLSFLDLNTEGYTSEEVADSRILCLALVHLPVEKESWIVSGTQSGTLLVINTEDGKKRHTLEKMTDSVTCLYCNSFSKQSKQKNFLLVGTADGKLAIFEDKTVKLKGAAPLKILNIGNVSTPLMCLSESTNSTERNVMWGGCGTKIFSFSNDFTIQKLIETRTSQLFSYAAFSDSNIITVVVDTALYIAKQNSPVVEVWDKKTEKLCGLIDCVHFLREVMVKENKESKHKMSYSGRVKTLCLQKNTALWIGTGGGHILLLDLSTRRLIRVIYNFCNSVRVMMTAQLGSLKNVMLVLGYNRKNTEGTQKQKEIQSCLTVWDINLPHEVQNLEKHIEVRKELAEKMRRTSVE

Experiments:
[1] = test system: human hepatocytes; test: Metabolic stability assay in hepatocytes; format: in vitro ADME; conditions: 0.5 μM test compound, intrinsic clearance
Protocol: c. Metabolic Stability Assay
Metabolic stability of compounds of the invention was evaluated in hepatocytes from human and preclinical species (e.g. rat). A test compound (0.5 μM) was incubated with 0.5 million viable hepatocytes at 37° C. in a 95% humidified incubator supplied with 5% CO2. 7-ethoxycoumarin was used as positive control and was treated in the same manner as the test compound. The incubation samples were gently mixed at 150 rpm. Incubation medium was Williams' Medium E containing 2 mM GlutaMAX™ and 25 mM HEPES. Samples were removed from incubation at a specified time interval (tx): 0, 15, 30, 60, 90 and 120 min. Reactions were terminated by adding equal volume of ice-cold acetonitrile/methanol/acetic acid (80/20/1, v/v/v) containing an internal standard (e.g. 100 ng/mL to butamide as internal standard). The precipitated protein was pelleted by centrifugation and the supernatant was transferred to a new 96-well polypropylene plate for LC/MS/MS analysis. The instrument responses of the test compound and the internal standard were measured using a compound specific LC/MS/MS methodology. The percentage of remaining test compound is calculated from the peak area ratio between the remaining test compound after incubation (tx) and the test compound peak area at the beginning of incubation (tx=0 min).
The half-life (t1/2) is calculated using the following equation: […]
where k is the turn-over rate constant from regression of ln (percentage of remaining test compound) over tx.
Metabolic stability of a test compound is expressed as Intrinsic Clearance (Clint) and is calculated from the half-life (t1/2) using the following equation:
Clint (ml/min/g)=(0.693/t1/2)×(ml per incubation/number of cells per incubation)×(number of cells/gram wet weight tissue)
Constants used to represent number of million cells/gram of wet tissue weight: 117.5 for human tissue and 108 for rat tissue.

[2] = molecular target: T1, LRRK2 kinase in SH-SY5Y cells over-expressing recombinant full length LRRK2 (Homo sapiens, UniProt Q5S007); test: Recombinant cellular LRRK2 AlphaScreen assay (LRRK2 Ser935 phosphorylation); format: cell-based; conditions: 60 min
T1 construct: A BacMam virus expressing full length recombinant LRRK2 was purchased from Invitrogen; host or cells: SH-SY5Y human neuroblastoma cells transduced with BacMam LRRK2 virus
Text: b. Recombinant Cellular LRRK2 AlphaScreen Assay
To determine the activity of compounds against LRRK2 kinase in cells, the observed LRRK2 kinase-dependent modulation of LRRK2 Ser 935 phosphorylation (Dzamko et al., 2010, Biochem. J. 430: 405-413) was utilized to develop a quantitative 384 well plate-based immunoassay of LRRK2 Ser935 phosphorylation in the human neuroblastoma cell line SH-SY5Y, engineered to over-express recombinant full length LRRK2 protein.
A BacMam virus expressing full length recombinant LRRK2 was purchased from Invitrogen and amplified by inoculation of SF-9 cells at MOI 0.3 for 4-5 days in Sf-900 III SFM medium supplemented with 3% fetal bovine serum. Infected cell cultures were then centrifuged at 2000 g for 20 minutes, viral supernatant titer determined by anti-gp64 plaque assay and stored at 4° C.
Affinity-purified anti-phospho LRRK2 Ser935 sheep polyclonal antibody (Dzamko et al., 2010, Biochem. J. 430: 405-413) was biotinylated by standard methods (PerkinElmer). Anti-LRRK2 rabbit polyclonal antibody was purchased from Novus Biologicals. AlphaScreen Protein A IgG Kit (including acceptor and donor beads) was purchased from Perkin Elmer.
SH-SY5Y cells were grown in DMEM/F12 medium with 10% dialysed fetal bovine serum and harvested by treatment with 0.5% trypsin-EDTA for 5 minutes at 37° C. followed by centrifugation at 1000 rpm for 4 minutes. The cell pellet was resuspended in Opti-MEM reduced serum media (Invitrogen) at 200,000 cells/ml and mixed with the BacMam LRRK2 virus at M01=50. 50 μl cell solutions were then dispensed to each well of a 384-well plate and incubated at 37° C., 5% CO2 for 24 hours.
Compounds were prepared at 10× final assay concentration as 11 point 1 in 4 serial I dilutions in Opti-MEM reduced serum medium (Invitrogen 31985070) containing 1% DMSO. On the day of assay, 5.5 μl of the compound solutions were transferred from the compound plate to the cell assay plate to achieve a top final assay concentration of 10 uM. DMSO (0.1% final assay concentration) was added to column 6 and 2-(benzyloxy)-5-methyl-4-(1-methyl-1H-pyrazol-4-yl)-N-(pyridin-3-yl)benzamide (2 μM final assay concentration) was added to column 18 to serve as 0% and 100% inhibition controls, respectively.
Cells were incubated at 37° C., 5% CO2 for 60 minutes. The medium was then removed and cells lysed by addition of 20 μl of cell lysis buffer (Cell Signaling Technology) and incubation at 4° C. for 20 minutes. 10 μl of antibody/acceptor bead mix [(1/1000 biotinylated-pS935 LRRK2 antibody, 1/1000 total-LRRK2 antibody, 1/100 Acceptor beads in AlphaScreen detection buffer (25 mM Hepes (pH 7.4), 0.5% Triton X-100, 1 mg/ml Dextran 500 and 0.1% BSA)] was then added to each well and plates incubated for 2 hours at ambient temperature in the dark. 10 μl of donor beads solution (1/33.3 donor beads in AlphaScreen detection buffer) was then added to each well. Following incubation for a further 2 hours at ambient temperature in the dark, plates were read on an EnVision™ plate reader at emission 520-620 nm with excitation 680 nm. Dose response curve data was based on a sigmoidal dose-response model.

| SMILES | Clint (human) [1] | pIC50 [2] |
| --- | --- | --- |
| Cc1c2c(nn1C1CCC(C)CC1)OCCC(C)Nc1nc(ncc1Cl)N2 (single isomer, unassigned) [E261, 14-Chloro-4,11-dimethyl-5-(4-methylcyclohexyl)-8-oxa-2,5,6,12,16,17-hexaazatricyclo[11.3.1.0^3,7] heptadeca-1(16),3,6,13(17),14-pentaene] | ≤ 10.0 mL/min/g | – |
| Cc1c2c(nn1C1CCCOC1)OCCCNc1nc(ncc1Br)N2 (single isomer, unassigned) [E289, 14-Bromo-4-methyl-5-(oxan-3-yl)-8-oxa-2,5,6, 12,16,17-hexaazatricyclo[11.3.1.0^3,7]heptadeca-1(16),3,6,13(17), 14-pentaene] | – | ≥ 7.0 |
| Cc1c2c(nn1C1COCCC1(F)F)OCCCNc1nc(ncc1Cl)N2 (single isomer, unassigned) [E303, 14-Chloro-5-(4,4-difluorooxan-3-yl)-4-methyl-8-oxa-2,5,6,12,16,17-hexaazatricyclo[11.3.1.0^3,7]heptadeca-1(16),3,6,13(17),14-pentaene] | – | ≥ 7.0 |
| Cc1c2c(nn1CCN1CCOCC1)OCCCNc1nc(ncc1Cl)N2 [E220, 14-Chloro-4-methyl-5-[2-(morpholin-4-yl)ethyl]-8-oxa-2,5,6,12, 16,17-hexaazatricyclo[11.3.1.0^3,7]heptadeca-1(16),3,6,13(17),14-pentaene] | ≤ 10.0 mL/min/g | – |
| COCCN1c2nc(ncc2Cl)Nc2c(nn(C3CCOCC3)c2C)OCC[C@H]1C [E400, (11R)-14-Chloro-12-(2-methoxyethyl)-4,11-dimethyl-5-(oxan-4-yl)-8-oxa-2,5,6,12,16,17-hexaazatricyclo[11.3.1.0^3,7]heptadeca-1(16),3,6,13(17),14-pentaene] | ≤ 10.0 mL/min/g | – |
